Measured values as given in the supplement of paper PMC4256282, “Profound Activity of the Anti-cancer Drug Bortezomib against Echinococcus multilocularis Metacestodes Identifies the Proteasome as a Novel Drug Target for Cestodes” (PLoS Neglected Tropical Diseases, 2014).
Structures can show the parent of a compound that is named as a salt. Some of the results follow. Many values rest on one well or one pass, so single values are uncertain.

The compounds below were run on Echinococcus multilocularis metacestodes (assay: vesicle damage (PGI release) relative to positive control DB1127 at 20 µM, DMSO subtracted; higher = more parasite damage). Settings: treatment time 5 days.
Work on `CC(=O)N[C@@H](CS)C(=O)O` [Acetylcysteine] yielded a vesicle damage of -4.07%.
Work on `CC(=O)O[C@@]12CO[C@@H]1C[C@H](O)[C@@]1(C)C(=O)[C@H](O)C3=C(C)[C@@H](OC(=O)[C@H](O)[C@@H](NC(=O)OC(C)(C)C)c4ccccc4)C[C@@](O)([C@@H](OC(=O)c4ccccc4)[C@H]21)C3(C)C` [Docetaxel] yielded a vesicle damage of -4.32%.
`CC(C)[N+]1(C)[C@@H]2CC[C@H]1C[C@@H](OC(=O)C(CO)c1ccccc1)C2` (stereo not given in full) [Ipratropium bromide] gave a vesicle damage of -3.74%.
`Oc1ncnc2[nH]ncc12` [Allopurinol] showed a vesicle damage of -1.59%.
`Clc1ccc(COC(Cn2ccnc2)c2ccc(Cl)cc2Cl)cc1` (stereo not given) [Econazole nitrate] was tested, and the vesicle damage was 59.7%.
With `O=C(O)c1cccnc1` [Niacin] the vesicle damage was -12.4%.
`CC[C@H]1OC(=O)[C@H](C)[C@@H](O[C@H]2C[C@@](C)(OC)[C@@H](O)[C@H](C)O2)[C@H](C)[C@@H](O[C@@H]2O[C@H](C)C[C@H](N(C)C)[C@H]2O)[C@](C)(O)C[C@@H](C)C(=O)[C@H](C)[C@@H](O)[C@]1(C)O` [Erythromycin] showed a vesicle damage of 2.27%.
`CCc1c2c(nc3ccc(OC(=O)N4CCC(N5CCCCC5)CC4)cc13)-c1cc3c(c(=O)n1C2)COC(=O)[C@]3(O)CC` [Irinotecan Hcl Trihydrate] showed a vesicle damage of 7.36%.
`CCCc1nn(C)c2c(=O)[nH]c(-c3cc(S(=O)(=O)N4CCN(C)CC4)ccc3OCC)nc12` [Sildenafil citrate] gave a vesicle damage of -4.96%.
In the case of `NS(=O)(=O)c1cc2c(cc1Cl)NCNS2(=O)=O` [Hydrochlorothiazide], the vesicle damage was -10.7%.
